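Cleavage of a resorufin-linked glucose substrate by isolated lysosomal acid glucosylceramidase was followed by fluorescence over a 20-minute room-temperature incubation.
Each compound was run as a titration series spanning about 0.6 nM up to 50 µM final.
The number is the fitted half-maximal concentration (AC50); a lower value means a more potent inhibitor.
The record treats a '>' qualifier as no measurable activity (inactive); no explicit numeric cut-off is stated.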

By UniProt entry, the sequences of proteins in these tests, tags left out.
UniProt P04062, whole entry, target on record: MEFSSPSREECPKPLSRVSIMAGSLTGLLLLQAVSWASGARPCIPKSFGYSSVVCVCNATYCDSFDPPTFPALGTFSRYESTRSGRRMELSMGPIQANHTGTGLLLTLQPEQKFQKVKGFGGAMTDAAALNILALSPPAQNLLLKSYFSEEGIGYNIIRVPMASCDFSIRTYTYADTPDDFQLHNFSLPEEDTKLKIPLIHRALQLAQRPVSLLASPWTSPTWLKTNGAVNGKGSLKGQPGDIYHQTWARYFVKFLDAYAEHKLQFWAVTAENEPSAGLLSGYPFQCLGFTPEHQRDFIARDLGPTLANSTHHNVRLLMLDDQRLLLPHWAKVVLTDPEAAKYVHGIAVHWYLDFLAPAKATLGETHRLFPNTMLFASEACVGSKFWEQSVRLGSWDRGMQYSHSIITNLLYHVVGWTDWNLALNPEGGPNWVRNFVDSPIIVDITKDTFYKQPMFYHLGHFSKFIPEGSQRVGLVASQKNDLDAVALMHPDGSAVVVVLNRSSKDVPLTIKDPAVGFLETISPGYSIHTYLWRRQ

Values are in nM.
Every entry below has the call inactive.
These are entries filed as inactive; the hits of the assay are not listed here.

SMILES	potency (nM)
O=c1[nH]c2ccc(S(=O)(=O)N3CCCCC3)cc2[nH]1	>76900
COc1ccccc1-n1c(-c2cccnc2)n[nH]c1=S	>76900
O=C(O)CCN(CCC(=O)O)S(=O)(=O)c1ccccc1	>76900
Cc1[nH]nc2c1C(=O)CCC2	>76900
CCC(C)(C(=O)NC1CCCCC1)N(CC1CCCO1)C(=O)c1ccccn1 (stereo not drawn)	>76900
O=C(CCCn1c(=O)[nH]c2cc(Cl)ccc2c1=O)NCCCN1CCCC1	>76900
CCn1c(=O)cc(SCC(=O)N2CCN(C(=O)c3ccco3)CC2)c2ccccc21	>76900
COc1ccc(NC(=O)C2CC(c3ccc(OC)c(OC)c3)=NO2)cc1OC (stereo not drawn)	>76900
CCCOC(=O)c1ccc(NC(=O)C2CCCO2)cc1 (stereo not drawn)	>76900
Cc1ccc(CC(NC(=O)c2ccccc2)C(=O)N2CCCC2C(=O)O)cc1 (stereo not drawn)	>76900
CCc1c(C)nc(SCC(=O)Nc2cccc(Br)c2)[nH]c1=O	>76900
NC(=O)COC(=O)c1cc(S(=O)(=O)N2CCOCC2)ccc1N1CCCCC1	>76900
O=C(Nc1ccc2c(c1)OCO2)C(c1ccccc1)N1CCN(C(=O)c2ccco2)CC1 (stereo not drawn)	>76900
CCSc1nc2ccccc2n1CC(N)=O	>76900
CCCCn1nnnc1SCC(=O)c1ccc(C)c(C)c1	>76900
CC(C)C(=O)N(c1ccc(F)cc1)C1C=CS(=O)(=O)C1 (stereo not drawn)	70999
COCCN1C(=O)C(CC(=O)Nc2ccc(C(=O)O)cc2)SC1=Nc1ccccc1 (stereo not drawn)	>76900
Cc1nccn1CCCN1C(=O)OC2(CCCCC2)C1(C)O (stereo not drawn)	>76900
CCOc1ncccc1C(=O)Nc1ccccc1C(=O)NCc1ccc2c(c1)OCO2	>76900
CC(=O)OC(C(=O)NCS(=O)(=O)c1ccc(C)cc1)c1cccnc1 (stereo not drawn)	>76900
CC(NC(=O)c1ccco1)C(=O)OCc1cccc(Cl)c1 (stereo not drawn)	>76900
CN(C)c1ccc(C(=O)N2CC(=O)N(CCc3ccccc3)C(=O)C2)cc1	>76900
Nc1cccc(-n2nncc2-c2ccccc2)c1	>76900
Cc1ccc(Cn2c(=O)c3ccccc3n3c(SCC(=O)N4CCCCC4C)nnc23)cc1 (stereo not drawn)	>76900
COCc1[nH]nc2c1C1(CCSCC1)C(C#N)=C(N)O2	>76900
CCOC(=O)C(Sc1nnc2c3ccccc3n(CC)c2n1)C(=O)OCC	>76900
O=C(CSc1nc(O)c(C2CCCCC2)c(=O)[nH]1)NCC1CCCO1 (stereo not drawn)	>76900
Cc1ccc(S(=O)(=O)N(C)CC(=O)N2CCCc3ccccc32)cc1	>76900
N#CC1=C2SCN(Cc3ccco3)CN2C(=O)CC1c1ccc(Cl)cc1 (stereo not drawn)	>76900
Cc1c(C(=O)Nc2ccccc2Cl)oc2ccc(S(=O)(=O)N3CCC4(CC3)OCCO4)cc12	>76900
O=C(NCc1ccco1)c1cccc(-c2nnc(-c3ccccc3)o2)c1	>76900
CCNC(=O)C1CC(=O)N(c2ccc(OCC)cc2)C1 (stereo not drawn)	>76900
CCC(=O)Nc1ccc(Oc2ccc3c(c2)C(=O)NC3=O)cc1	>76900
Cc1cccc(OCc2nnc(SCC(=O)c3cccs3)n2C)c1C	>76900
COc1ccc(OC)c(NC(=O)CSCC(=O)O)c1	>76900
Cc1cc(NC(=O)CSc2nnc(-c3ccco3)n2CC2CCCO2)no1 (stereo not drawn)	>76900
CC(=O)Cc1nsc(Nc2ccc3c(c2)OCCO3)n1	>76900
CCOC(=O)c1ccccc1NC1OC(=O)c2ccccc21 (stereo not drawn)	>76900
CN(C)S(=O)(=O)c1ccc(C(=O)NCCOc2ccccc2)cc1	>76900
O=C(Cn1nnc(-c2ccccc2-n2cnnn2)n1)c1ccccc1	>76900
COCCCNS(=O)(=O)c1ccc(OC)c(Cl)c1Cl	>76900
CC(C)NC(=O)CN(c1cccc(Br)c1)S(C)(=O)=O	>76900
CC1Oc2ccccc2N(CC(=O)c2cccc(Cl)c2)C1=O (stereo not drawn)	>76900
Cc1ccc(C)c(S(=O)(=O)C(C#N)c2nc3ccccc3nc2N2CC(C)OC(C)C2)c1 (stereo not drawn)	>76900
O=C1N(CN2C(=O)C3(OCCO3)c3ccccc32)c2ccccc2C12OCCO2	>76900
O=C(NC1CCCCC1)NC1(C(=O)NCCCN2CCOCC2)CCCCC1	>76900
Cc1nn(Cc2ccccc2)c(C)c1NC(=O)c1cc(-c2ccco2)on1	>76900
CS(=O)(=O)c1nc(-c2cccs2)cc(C(F)(F)F)n1	>76900
O=c1[nH]c(NC2CCCCC2)nnc1Cc1ccccc1	>76900
Cn1nnnc1SCCNCc1ccncc1	>76900
CC(c1ccccc1)n1cc(C(=O)NCC2CCCO2)nn1 (stereo not drawn)	>76900
COc1ccc(CN(CCCN2CCOCC2)S(=O)(=O)N(C)C)cc1OC	>76900
CC(C)CC(NC(=O)C1CCCN1C(=O)OC(C)(C)C)C(=O)NCC(N)=O (stereo not drawn)	>76900
COc1ccc(-c2noc(CCC(=O)NCc3cc(Br)ccc3OC)n2)cc1	>76900
COc1ccc2cc(CN(Cc3cccnc3)Cc3nnnn3Cc3ccccc3)c(=O)[nH]c2c1	>76900
Cc1cc(NC(=O)CSc2nnnn2Cc2ccccc2)no1	>76900
CCCS(=O)(=O)N1CCCC(C(=O)NCc2ccc(C)cc2)C1 (stereo not drawn)	>76900
CCOC(=O)C1CCN(S(=O)(=O)c2ccc(C(=O)OC)cc2)CC1	>76900
O=C(CSc1nnnn1C1CCCC1)Nc1cccc(NC(=O)c2ccco2)c1	>76900
CCCCCOC(=O)c1ccc(NC(=O)c2ccco2)cc1	>76900
COC(=O)CNC(=O)C(Cc1c[nH]c2ccccc12)NC(=O)OC(C)(C)C (stereo not drawn)	>76900
Cc1ccc2cc(C(c3nnnn3C3CCCC3)N3CCN(c4ccc(F)cc4)CC3)c(=O)[nH]c2c1 (stereo not drawn)	>76900
CC(NC(=O)C(CC(=O)OC(C)(C)C)NC(=O)OC(C)(C)C)C(N)=O (stereo not drawn)	>76900
CCC1C(=O)N=C(SCC(=O)Nc2cccc3ccccc23)NC1=O (stereo not drawn)	>76900
CCOC(=O)C1CCCN(C(=O)CCCOc2cc(=O)n(C)c3ccccc23)C1 (stereo not drawn)	>76900
COC(=O)CN(c1ccccc1)S(=O)(=O)c1ccc(F)cc1	>76900
CCOC(=O)C1CCN(C(=O)c2ccc3snnc3c2)CC1	>76900
Cc1ccc(N2CC(C(=O)Nc3ccc(S(=O)(=O)N4CCOCC4)cc3)CC2=O)cc1 (stereo not drawn)	>76900
Cc1cc(C)cc(NC(=O)NCc2nnc(SCc3ccccc3)n2C)c1	>76900
Cc1ccccc1Cn1c(C(C)O)nc2ccccc21 (stereo not drawn)	>76900
Cc1cc(C)c(NC(=O)CS(=O)CC(=O)N2CCN(c3ccccc3)CC2)c(C)c1 (stereo not drawn)	>76900
CCOC(=O)N1CCN(C(=O)c2ccc3c(=O)n(CCc4ccccc4)c(=S)[nH]c3c2)CC1	>76900
O=C1CC(c2ccc(F)cc2)Cc2nc(NCc3ccco3)ncc21 (stereo not drawn)	>76900
CC(=O)NC(CCS(C)(=O)=O)C(=O)N1CCc2ccccc21 (stereo not drawn)	>76900
Cc1ccc(S(=O)(=O)C(C#N)c2nc3ccccc3nc2OC(C)C)cc1 (stereo not drawn)	>76900
COC(=O)c1cc(NC(=O)C2CC2)cc(C(=O)OC)c1	>76900
CCOC(=O)Nc1nc(C)c(C(=O)N(C)C)s1	>76900
CCCCOCC(O)Cn1c(C)nc2ccccc21 (stereo not drawn)	>76900
CCCCNc1cc(C)oc(=O)c1C(C)=O	>76900
O=c1[nH]cnc2nc3n(c12)CCCCC3	>76900
O=C(CSc1nc2ccccc2[nH]1)N1CCCCC1	>76900
O=c1cc(N2CCN(c3ccccc3)CC2)[nH]c(=O)n1C1CCCCC1	>76900
Cc1noc(C)c1CSc1nnc2ccc3ccccc3n12	>76900
CC(=O)Nc1nc(=S)ss1	>76900
COc1nc(OCCNC(=O)Nc2ccccc2)nc(N(C)C)n1	>76900
COC(=O)c1cn(CC(=O)NC2CCCCC2)c2ccccc12	>76900

The last 9 entries again:

Result for CCCCOCC(O)Cn1c(C)nc2ccccc21 (stereo not drawn) was potency >76900 nM.
Result for CCCCNc1cc(C)oc(=O)c1C(C)=O was potency >76900 nM.
Result for O=c1[nH]cnc2nc3n(c12)CCCCC3 was potency >76900 nM.
Result for O=C(CSc1nc2ccccc2[nH]1)N1CCCCC1 was potency >76900 nM.
Result for O=c1cc(N2CCN(c3ccccc3)CC2)[nH]c(=O)n1C1CCCCC1 was potency >76900 nM.
Result for Cc1noc(C)c1CSc1nnc2ccc3ccccc3n12 was potency >76900 nM.
Result for CC(=O)Nc1nc(=S)ss1 was potency >76900 nM.
Result for COc1nc(OCCNC(=O)Nc2ccccc2)nc(N(C)C)n1 was potency >76900 nM.
Result for COC(=O)c1cn(CC(=O)NC2CCCCC2)c2ccccc12 was potency >76900 nM.

From PubChem BioAssay record AID360 (NCATS, 2006).